Measurements: the supplement of paper PMC6411743
± gives the standard deviation of the averaged measurements. The list shows a part of the results, in another mix than the full data.

The chains behind the UniProt entries cited, without tags or fusion partners. Where a name states a change or a piece, a line headed by the entry shows the natural chain unless it says otherwise.
UniProt Q86XI2: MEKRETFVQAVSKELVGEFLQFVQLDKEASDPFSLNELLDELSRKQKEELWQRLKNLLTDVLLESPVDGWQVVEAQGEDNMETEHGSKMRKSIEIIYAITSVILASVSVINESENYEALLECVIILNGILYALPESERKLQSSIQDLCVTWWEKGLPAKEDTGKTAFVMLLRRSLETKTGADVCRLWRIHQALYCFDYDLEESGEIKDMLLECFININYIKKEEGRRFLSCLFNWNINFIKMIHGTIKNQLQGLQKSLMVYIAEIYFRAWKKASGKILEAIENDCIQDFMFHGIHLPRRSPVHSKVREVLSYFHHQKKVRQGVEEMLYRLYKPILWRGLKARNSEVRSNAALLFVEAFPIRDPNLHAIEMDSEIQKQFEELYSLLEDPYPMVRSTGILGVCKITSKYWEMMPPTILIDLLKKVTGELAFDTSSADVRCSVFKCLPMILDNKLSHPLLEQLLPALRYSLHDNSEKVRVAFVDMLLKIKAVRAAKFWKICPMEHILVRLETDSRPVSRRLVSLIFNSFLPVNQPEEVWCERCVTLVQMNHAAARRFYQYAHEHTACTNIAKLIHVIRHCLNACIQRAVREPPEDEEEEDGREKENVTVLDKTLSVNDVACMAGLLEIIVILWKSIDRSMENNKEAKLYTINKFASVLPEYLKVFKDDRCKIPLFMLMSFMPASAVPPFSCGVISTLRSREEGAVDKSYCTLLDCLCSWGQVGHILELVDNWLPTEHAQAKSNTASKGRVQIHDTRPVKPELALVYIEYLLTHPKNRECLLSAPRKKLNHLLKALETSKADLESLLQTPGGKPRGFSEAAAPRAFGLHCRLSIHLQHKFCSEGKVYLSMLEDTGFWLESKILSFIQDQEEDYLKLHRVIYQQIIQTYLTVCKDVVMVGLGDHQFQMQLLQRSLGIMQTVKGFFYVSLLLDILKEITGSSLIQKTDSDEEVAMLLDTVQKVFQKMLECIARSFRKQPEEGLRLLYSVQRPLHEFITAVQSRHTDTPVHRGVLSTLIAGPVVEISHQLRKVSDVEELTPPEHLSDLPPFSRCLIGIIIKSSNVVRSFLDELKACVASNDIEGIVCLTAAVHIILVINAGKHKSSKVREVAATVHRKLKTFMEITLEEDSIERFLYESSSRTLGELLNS
UniProt Q8IZ73: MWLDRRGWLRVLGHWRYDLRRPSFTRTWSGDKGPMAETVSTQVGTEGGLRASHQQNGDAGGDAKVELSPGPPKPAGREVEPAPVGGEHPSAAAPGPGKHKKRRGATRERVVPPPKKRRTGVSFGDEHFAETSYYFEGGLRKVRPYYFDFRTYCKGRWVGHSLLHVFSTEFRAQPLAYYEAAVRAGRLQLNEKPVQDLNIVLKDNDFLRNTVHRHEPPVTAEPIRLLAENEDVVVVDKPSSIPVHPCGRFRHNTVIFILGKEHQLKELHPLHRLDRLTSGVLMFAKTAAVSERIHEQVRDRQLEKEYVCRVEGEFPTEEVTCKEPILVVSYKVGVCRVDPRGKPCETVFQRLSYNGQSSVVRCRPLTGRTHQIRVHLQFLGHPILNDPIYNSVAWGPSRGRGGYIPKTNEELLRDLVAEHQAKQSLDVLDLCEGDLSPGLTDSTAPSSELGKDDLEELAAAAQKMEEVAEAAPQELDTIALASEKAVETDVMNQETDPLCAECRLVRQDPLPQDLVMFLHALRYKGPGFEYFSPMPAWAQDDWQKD
UniProt Q8IZ40: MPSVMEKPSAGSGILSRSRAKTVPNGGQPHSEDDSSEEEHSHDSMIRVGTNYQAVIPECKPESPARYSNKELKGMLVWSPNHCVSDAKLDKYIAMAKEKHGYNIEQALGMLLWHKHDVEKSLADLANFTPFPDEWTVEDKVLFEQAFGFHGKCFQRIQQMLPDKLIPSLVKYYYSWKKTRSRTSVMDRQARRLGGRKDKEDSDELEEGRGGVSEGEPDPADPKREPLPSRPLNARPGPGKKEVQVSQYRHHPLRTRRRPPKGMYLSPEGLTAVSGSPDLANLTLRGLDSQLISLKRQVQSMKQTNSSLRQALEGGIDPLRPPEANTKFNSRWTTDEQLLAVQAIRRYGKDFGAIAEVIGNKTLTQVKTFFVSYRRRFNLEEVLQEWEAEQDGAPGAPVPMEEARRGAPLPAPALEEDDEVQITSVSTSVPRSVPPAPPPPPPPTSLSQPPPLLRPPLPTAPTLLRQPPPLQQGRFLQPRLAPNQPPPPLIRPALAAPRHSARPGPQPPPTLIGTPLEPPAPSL
UniProt Q86WR0: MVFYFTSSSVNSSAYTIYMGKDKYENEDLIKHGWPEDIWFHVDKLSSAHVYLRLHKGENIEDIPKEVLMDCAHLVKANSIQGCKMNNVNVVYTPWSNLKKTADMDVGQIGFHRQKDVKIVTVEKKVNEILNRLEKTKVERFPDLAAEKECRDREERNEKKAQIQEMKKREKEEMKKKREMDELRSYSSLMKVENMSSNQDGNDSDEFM
UniProt Q86X83, whole entry: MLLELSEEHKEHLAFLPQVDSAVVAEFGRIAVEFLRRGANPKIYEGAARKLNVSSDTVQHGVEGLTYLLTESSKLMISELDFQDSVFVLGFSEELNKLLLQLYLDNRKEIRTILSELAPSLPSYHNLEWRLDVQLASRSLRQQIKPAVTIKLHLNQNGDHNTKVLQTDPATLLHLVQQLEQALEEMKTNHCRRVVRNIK
UniProt Q86SK9: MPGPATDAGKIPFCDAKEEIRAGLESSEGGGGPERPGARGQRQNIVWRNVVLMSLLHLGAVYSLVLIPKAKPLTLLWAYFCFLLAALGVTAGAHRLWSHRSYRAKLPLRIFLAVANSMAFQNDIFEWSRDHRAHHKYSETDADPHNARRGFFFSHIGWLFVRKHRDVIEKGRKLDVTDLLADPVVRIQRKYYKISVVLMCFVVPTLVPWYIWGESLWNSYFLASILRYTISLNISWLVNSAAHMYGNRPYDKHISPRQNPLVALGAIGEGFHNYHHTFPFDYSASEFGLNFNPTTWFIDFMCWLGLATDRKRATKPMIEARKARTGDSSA
UniProt Q86WV6: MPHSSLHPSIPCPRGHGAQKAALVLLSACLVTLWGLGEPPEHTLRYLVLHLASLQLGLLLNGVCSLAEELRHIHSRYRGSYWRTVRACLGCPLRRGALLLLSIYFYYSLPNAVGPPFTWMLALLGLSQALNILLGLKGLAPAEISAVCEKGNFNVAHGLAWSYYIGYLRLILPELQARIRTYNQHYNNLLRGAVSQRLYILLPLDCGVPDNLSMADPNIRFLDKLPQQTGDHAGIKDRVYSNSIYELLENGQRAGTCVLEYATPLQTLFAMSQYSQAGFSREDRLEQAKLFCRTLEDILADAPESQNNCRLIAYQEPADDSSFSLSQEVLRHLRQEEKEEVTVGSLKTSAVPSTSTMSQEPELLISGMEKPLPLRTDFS
UniProt Q8IWY9: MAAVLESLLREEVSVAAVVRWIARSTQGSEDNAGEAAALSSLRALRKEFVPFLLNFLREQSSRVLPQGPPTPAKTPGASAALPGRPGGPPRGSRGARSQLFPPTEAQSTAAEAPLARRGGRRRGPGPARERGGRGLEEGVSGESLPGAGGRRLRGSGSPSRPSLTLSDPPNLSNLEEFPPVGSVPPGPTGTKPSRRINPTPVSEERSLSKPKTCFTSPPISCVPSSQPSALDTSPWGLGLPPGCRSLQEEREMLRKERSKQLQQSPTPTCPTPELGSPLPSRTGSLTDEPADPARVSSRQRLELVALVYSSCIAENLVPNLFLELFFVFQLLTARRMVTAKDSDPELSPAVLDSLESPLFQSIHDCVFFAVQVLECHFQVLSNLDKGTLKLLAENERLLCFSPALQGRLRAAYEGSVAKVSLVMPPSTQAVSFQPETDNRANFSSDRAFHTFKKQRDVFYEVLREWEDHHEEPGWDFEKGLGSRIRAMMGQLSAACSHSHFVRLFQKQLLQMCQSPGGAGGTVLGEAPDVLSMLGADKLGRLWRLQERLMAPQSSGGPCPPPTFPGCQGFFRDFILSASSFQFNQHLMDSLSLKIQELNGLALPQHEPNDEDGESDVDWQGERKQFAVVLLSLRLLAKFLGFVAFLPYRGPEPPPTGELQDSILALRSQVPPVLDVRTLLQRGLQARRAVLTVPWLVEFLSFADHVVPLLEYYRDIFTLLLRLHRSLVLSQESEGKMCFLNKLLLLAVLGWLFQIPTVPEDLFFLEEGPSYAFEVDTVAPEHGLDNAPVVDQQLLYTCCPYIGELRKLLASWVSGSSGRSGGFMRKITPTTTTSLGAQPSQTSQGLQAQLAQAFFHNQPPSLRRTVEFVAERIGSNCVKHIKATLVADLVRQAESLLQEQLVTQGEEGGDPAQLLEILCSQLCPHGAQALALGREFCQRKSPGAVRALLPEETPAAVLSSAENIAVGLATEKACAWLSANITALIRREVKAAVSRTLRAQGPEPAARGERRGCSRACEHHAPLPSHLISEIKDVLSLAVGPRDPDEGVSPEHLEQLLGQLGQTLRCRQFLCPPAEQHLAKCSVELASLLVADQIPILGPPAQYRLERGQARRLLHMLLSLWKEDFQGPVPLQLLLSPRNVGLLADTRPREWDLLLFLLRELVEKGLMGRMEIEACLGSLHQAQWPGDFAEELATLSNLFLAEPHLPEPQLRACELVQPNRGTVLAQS
UniProt Q86VP1, whole entry: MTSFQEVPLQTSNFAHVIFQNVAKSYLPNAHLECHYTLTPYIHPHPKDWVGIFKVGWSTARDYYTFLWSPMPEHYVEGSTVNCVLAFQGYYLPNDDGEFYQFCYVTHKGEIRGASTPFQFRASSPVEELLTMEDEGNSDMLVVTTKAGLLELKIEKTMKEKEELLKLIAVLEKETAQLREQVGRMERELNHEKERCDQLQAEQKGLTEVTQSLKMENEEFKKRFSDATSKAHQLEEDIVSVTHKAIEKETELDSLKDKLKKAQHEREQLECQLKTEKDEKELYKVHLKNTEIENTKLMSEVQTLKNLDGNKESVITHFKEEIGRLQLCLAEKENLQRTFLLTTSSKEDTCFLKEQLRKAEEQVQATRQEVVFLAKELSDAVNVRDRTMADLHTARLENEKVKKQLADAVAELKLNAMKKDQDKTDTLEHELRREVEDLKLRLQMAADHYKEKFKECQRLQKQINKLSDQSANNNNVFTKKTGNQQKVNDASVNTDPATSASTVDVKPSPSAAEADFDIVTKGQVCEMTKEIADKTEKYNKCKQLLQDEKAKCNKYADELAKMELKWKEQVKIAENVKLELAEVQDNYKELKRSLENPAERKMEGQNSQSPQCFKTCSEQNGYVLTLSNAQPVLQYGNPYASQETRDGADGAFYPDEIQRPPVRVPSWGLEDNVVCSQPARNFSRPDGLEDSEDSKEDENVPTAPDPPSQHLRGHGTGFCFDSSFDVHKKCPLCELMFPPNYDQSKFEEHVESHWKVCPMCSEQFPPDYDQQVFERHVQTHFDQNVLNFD
UniProt Q8IUR0, whole entry: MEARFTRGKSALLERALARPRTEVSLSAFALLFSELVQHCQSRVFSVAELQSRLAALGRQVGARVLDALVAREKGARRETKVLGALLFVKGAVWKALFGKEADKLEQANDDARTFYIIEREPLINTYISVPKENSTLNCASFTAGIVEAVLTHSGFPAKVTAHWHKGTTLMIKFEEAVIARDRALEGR
UniProt Q8N668, whole entry: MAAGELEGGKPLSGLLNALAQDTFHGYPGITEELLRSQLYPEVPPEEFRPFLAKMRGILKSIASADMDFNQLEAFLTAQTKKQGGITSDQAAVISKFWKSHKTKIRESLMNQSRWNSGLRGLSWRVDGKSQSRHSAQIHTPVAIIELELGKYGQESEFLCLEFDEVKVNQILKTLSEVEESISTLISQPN
UniProt Q86TP1: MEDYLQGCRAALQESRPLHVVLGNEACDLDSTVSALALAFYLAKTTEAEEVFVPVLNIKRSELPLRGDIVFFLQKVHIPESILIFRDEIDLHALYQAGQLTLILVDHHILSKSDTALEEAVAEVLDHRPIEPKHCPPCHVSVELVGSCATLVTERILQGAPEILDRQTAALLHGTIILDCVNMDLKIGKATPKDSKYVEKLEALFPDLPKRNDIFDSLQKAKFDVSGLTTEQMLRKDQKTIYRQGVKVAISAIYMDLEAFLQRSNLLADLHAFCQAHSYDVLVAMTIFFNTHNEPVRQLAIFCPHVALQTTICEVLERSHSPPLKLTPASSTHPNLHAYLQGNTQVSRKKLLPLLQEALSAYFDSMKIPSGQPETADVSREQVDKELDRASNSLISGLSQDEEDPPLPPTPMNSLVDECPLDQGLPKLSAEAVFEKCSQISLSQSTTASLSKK
UniProt Q86VY4: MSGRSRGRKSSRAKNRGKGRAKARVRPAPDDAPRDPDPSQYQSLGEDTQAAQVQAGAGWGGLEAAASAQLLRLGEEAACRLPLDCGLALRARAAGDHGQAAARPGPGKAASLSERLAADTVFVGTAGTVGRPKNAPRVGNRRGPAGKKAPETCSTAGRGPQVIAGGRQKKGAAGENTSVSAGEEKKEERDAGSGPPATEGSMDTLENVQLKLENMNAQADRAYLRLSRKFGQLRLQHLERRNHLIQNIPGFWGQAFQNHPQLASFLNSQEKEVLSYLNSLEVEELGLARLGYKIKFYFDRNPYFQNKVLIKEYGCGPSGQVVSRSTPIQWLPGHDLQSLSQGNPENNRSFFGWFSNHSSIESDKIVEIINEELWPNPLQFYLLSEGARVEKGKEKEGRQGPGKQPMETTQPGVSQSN

Compound: Nc1ncnc2c1ncn2[C@@H]1O[C@H](COP(=O)(O)OP(=O)(O)NP(=O)(O)O)[C@@H](O)[C@H]1O [adenylyl imidodiphosphate]
Assay: NP40-soluble protein abundance relative to vehicle (solubility fold change) (ratio); higher = more soluble protein in presence of AMP-PNP
How it was run: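 Data come from three independent experiments in which Dounce-homogenised Jurkat crude lysate was treated at eight concentrations from 0.1 to 10 mM. Treatment ran 10 min at room temperature and then 3 min at 37 °C, after which 0.8% NP40 and benzonase were added for 60 min at 4 °C before ultracentrifugation. The supernatant underwent TMT labelling and LC-MS/MS, and vsn-normalised intensities were expressed as fold change against the detergent-processed vehicle in each replicate.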

Target	NP40-soluble protein abundance (concentration: 1mM)	NP40-soluble protein abundance (concentration: 2mM)	NP40-soluble protein abundance (concentration: 4mM)	NP40-soluble protein abundance (concentration: 6mM)	NP40-soluble protein abundance (concentration: 8mM)	NP40-soluble protein abundance (concentration: 10mM)
UniProt Q8IV53 and related entries	0.994 ± 0.015	0.997 ± 0.029	0.994 ± 0.033	0.9887 ± 0.0092	0.983 ± 0.015	0.995 ± 0.013
PTAR1 (UniProt Q7Z6K3)	0.997 ± 0.029	1 ± 0.04	1.02 ± 0.018	1 ± 0.012	1.01 ± 0.029	0.985 ± 0.025
UniProt Q86XI2 and related entries	0.9646 ± 0.0089	0.952 ± 0.066	0.978 ± 0.067	0.984 ± 0.054	0.977 ± 0.019	0.954 ± 0.069
UniProt Q7Z7A4 and related entries	0.99 ± 0.033	0.973 ± 0.029	1.02 ± 0.073	1.14 ± 0.074	1.14 ± 0.064	1.15 ± 0.15
UniProt Q8IZ73 and related entries	1.04 ± 0.019	1.05 ± 0.04	1.04 ± 0.029	1 ± 0.015	0.9969 ± 0.0043	0.984 ± 0.016
RCOR2 (UniProt Q8IZ40)	0.965 ± 0.072	1.01 ± 0.081	1 ± 0.071	1.01 ± 0.046	1.02 ± 0.052	1.06 ± 0.021
CCDC25 (UniProt Q86WR0)	1.02 ± 0.035	1.01 ± 0.021	0.9961 ± 0.0019	1.02 ± 0.019	1.03 ± 0.019	1.03 ± 0.039
ANKRD52 (UniProt Q8NB46)	1.04 ± 0.038	1.02 ± 0.013	1.02 ± 0.012	1 ± 0.023	1.01 ± 0.05	1 ± 0.021
UniProt Q8IXW5 and related entries	1.06 ± 0.052	1.05 ± 0.034	1.03 ± 0.04	0.988 ± 0.096	0.961 ± 0.059	0.977 ± 0.062
UniProt Q86YS7	0.973 ± 0.015	0.97 ± 0.016	0.982 ± 0.017	0.942 ± 0.012	0.919 ± 0.015	0.948 ± 0.018
UniProt Q8NB78	0.99 ± 0.033	0.996 ± 0.011	1.02 ± 0.015	0.977 ± 0.01	1.015 ± 0.005	0.991 ± 0.039
UniProt Q86X83 and related entries	1.01 ± 0.038	0.928 ± 0.062	0.965 ± 0.049	0.972 ± 0.027	1.01 ± 0.055	0.967 ± 0.058
GDPD1 (UniProt Q8N9F7)	0.996 ± 0.013	0.994 ± 0.049	1.04 ± 0.04	0.994 ± 0.025	1.03 ± 0.029	1.01 ± 0.03
PDSS2 (UniProt Q86YH6)	0.984 ± 0.029	1.02 ± 0.026	0.999 ± 0.021	0.995 ± 0.02	0.98 ± 0.04	0.978 ± 0.024
UniProt Q86SK9 and related entries	0.98 ± 0.03	0.982 ± 0.037	0.988 ± 0.055	0.987 ± 0.03	0.976 ± 0.023	0.98 ± 0.053
MRPL50 (UniProt Q8N5N7)	1 ± 0.1	1.02 ± 0.073	0.982 ± 0.1	0.945 ± 0.12	0.955 ± 0.088	0.939 ± 0.11
UniProt Q8IZ21 and related entries	0.969 ± 0.046	1.02 ± 0.017	0.98 ± 0.038	0.962 ± 0.072	0.967 ± 0.032	0.986 ± 0.081

Target	NP40-soluble protein abundance (concentration: 1mM)	NP40-soluble protein abundance (concentration: 2mM)	NP40-soluble protein abundance (concentration: 4mM)	NP40-soluble protein abundance (concentration: 6mM)	NP40-soluble protein abundance (concentration: 8mM)	NP40-soluble protein abundance (concentration: 10mM)
UniProt Q8IYU8 and related entries	0.996 ± 0.056	0.956 ± 0.041	1.004 ± 0.0081	0.9874 ± 0.0039	1.01 ± 0.017	0.974 ± 0.018
TMEM102 (UniProt Q8N9M5)	1.03 ± 0.039	1.05 ± 0.037	1.06 ± 0.021	1.01 ± 0.051	1.03 ± 0.022	1.044 ± 0.0053
TMEM173 (UniProt Q86WV6)	1.02 ± 0.049	1.02 ± 0.049	0.986 ± 0.073	0.9747 ± 0.0089	0.964 ± 0.037	0.962 ± 0.064
UniProt Q8IWY9 and related entries	0.971 ± 0.023	0.982 ± 0.023	0.977 ± 0.023	0.976 ± 0.027	0.969 ± 0.034	0.98 ± 0.082
UniProt Q8N9N5 and related entries	0.976 ± 0.019	0.983 ± 0.026	0.997 ± 0.029	0.981 ± 0.022	0.95 ± 0.023	0.976 ± 0.017
UniProt Q86VP1-2|Q86VP1-4|B8ZZD4	0.977 ± 0.039	1.01 ± 0.026	0.963 ± 0.024	0.935 ± 0.038	0.925 ± 0.033	0.936 ± 0.031
UniProt Q8N122 and related entries	1.01 ± 0.031	0.955 ± 0.021	0.985 ± 0.011	0.972 ± 0.013	0.967 ± 0.018	0.994 ± 0.034
TRAPPC5 (UniProt Q8IUR0)	0.946 ± 0.055	0.933 ± 0.043	0.959 ± 0.073	1.187 ± 0.002	1.18 ± 0.043	1.12 ± 0.13
UniProt Q8IWD4 and related entries	1.038 ± 0.0055	1.04 ± 0.029	1.01 ± 0.027	0.984 ± 0.014	0.991 ± 0.027	0.953 ± 0.02
UniProt Q7Z7A1 and related entries	0.986 ± 0.013	1.01 ± 0.062	1 ± 0.015	0.981 ± 0.017	0.9496 ± 0.0093	0.989 ± 0.045
PARG (UniProt Q86W56)	1.06 ± 0.018	1.09 ± 0.056	1.05 ± 0.03	1.02 ± 0.031	0.999 ± 0.029	1.02 ± 0.026
UniProt Q8NBJ4 and related entries	1.02 ± 0.017	1.01 ± 0.026	0.98 ± 0.053	0.9858 ± 0.0046	0.977 ± 0.011	0.975 ± 0.035
UniProt Q8N6G5 and related entries	0.923 ± 0.052	0.901 ± 0.069	0.896 ± 0.057	0.909 ± 0.044	0.872 ± 0.047	0.926 ± 0.08
COMMD1 (UniProt Q8N668)	0.932 ± 0.038	0.956 ± 0.045	0.883 ± 0.032	0.957 ± 0.026	0.91 ± 0.031	0.905 ± 0.052
UniProt Q86TP1 and related entries	1.05 ± 0.04	1.04 ± 0.031	1.021 ± 0.0092	0.995 ± 0.047	1.01 ± 0.054	0.974 ± 0.034
UniProt Q8IY63 and related entries	0.997 ± 0.039	1.02 ± 0.032	1.02 ± 0.055	1.01 ± 0.051	1.01 ± 0.049	0.998 ± 0.047
TSPYL5 (UniProt Q86VY4)	1.06 ± 0.032	1.09 ± 0.09	1.06 ± 0.06	1.08 ± 0.041	1.09 ± 0.028	1.12 ± 0.054

Quoted at random: two entries already listed
Target	NP40-soluble protein abundance (concentration: 1mM)	NP40-soluble protein abundance (concentration: 2mM)	NP40-soluble protein abundance (concentration: 4mM)	NP40-soluble protein abundance (concentration: 6mM)	NP40-soluble protein abundance (concentration: 8mM)	NP40-soluble protein abundance (concentration: 10mM)
UniProt Q86VP1-2|Q86VP1-4|B8ZZD4	0.977 ± 0.039	1.01 ± 0.026	0.963 ± 0.024	0.935 ± 0.038	0.925 ± 0.033	0.936 ± 0.031
UniProt Q8NBJ4 and related entries	1.02 ± 0.017	1.01 ± 0.026	0.98 ± 0.053	0.9858 ± 0.0046	0.977 ± 0.011	0.975 ± 0.035
